From the supplement of paper PMC6411743
± gives the standard deviation of the averaged measurements. The list shows a part of the results.

The chains behind the UniProt entries cited, without tags or fusion partners. Where a name states a change or a piece, a line headed by the entry shows the natural chain unless it says otherwise.
UniProt Q14320: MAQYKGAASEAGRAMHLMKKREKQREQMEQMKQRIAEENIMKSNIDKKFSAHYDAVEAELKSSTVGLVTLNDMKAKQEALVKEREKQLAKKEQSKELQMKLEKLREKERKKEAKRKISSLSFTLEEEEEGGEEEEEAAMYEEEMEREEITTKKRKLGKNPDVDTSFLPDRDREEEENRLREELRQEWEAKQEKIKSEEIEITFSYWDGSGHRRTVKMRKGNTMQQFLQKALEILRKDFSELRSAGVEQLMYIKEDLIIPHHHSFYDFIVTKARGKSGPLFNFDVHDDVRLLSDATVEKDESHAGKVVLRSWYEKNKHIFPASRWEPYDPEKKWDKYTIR
UniProt Q13496: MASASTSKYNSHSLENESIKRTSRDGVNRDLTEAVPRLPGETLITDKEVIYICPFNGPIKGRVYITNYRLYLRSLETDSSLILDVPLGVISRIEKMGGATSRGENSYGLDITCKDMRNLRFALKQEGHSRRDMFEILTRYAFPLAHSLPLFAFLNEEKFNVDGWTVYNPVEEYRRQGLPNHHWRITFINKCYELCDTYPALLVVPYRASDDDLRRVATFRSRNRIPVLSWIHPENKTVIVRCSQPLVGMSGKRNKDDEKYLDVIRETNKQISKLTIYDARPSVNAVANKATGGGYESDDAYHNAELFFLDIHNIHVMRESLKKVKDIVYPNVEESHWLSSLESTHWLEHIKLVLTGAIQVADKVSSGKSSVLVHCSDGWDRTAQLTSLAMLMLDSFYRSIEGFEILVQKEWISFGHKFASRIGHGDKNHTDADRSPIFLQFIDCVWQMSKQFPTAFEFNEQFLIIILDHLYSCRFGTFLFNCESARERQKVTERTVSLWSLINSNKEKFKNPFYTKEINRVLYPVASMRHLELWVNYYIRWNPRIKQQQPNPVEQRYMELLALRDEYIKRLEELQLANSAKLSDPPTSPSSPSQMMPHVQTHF
UniProt Q14161: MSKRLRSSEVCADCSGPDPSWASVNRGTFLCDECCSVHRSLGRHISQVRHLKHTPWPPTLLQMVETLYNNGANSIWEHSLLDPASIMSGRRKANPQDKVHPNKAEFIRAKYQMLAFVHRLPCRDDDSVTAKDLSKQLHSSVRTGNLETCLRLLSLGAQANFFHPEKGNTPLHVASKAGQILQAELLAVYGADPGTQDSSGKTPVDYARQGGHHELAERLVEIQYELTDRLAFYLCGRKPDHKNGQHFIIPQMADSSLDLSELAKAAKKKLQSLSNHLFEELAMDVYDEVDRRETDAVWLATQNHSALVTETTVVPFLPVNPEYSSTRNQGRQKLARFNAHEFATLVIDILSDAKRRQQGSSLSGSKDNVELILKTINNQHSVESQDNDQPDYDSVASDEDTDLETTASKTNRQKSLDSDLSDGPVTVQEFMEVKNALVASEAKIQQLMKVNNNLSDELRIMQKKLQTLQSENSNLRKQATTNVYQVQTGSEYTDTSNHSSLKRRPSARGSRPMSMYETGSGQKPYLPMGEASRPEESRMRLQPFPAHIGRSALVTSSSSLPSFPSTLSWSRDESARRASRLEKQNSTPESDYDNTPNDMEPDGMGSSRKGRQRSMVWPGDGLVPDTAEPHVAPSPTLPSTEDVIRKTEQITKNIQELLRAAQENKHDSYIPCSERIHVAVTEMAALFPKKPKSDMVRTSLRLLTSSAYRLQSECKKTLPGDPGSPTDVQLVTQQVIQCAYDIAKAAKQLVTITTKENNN
UniProt Q10713: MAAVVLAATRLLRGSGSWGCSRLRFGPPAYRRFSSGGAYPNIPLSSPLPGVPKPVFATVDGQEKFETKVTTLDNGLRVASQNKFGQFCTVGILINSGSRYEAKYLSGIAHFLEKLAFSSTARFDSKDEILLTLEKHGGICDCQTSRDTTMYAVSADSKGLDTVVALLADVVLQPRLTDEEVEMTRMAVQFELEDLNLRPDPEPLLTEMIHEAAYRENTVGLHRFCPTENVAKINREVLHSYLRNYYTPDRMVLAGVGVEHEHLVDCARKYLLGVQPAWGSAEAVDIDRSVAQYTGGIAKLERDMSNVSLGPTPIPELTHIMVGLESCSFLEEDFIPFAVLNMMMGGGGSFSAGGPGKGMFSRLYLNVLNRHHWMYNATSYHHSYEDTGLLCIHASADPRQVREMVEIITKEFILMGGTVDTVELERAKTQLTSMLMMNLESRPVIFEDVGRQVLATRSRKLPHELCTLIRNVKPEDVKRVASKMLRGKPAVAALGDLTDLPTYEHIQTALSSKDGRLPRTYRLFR
UniProt Q13242, whole entry: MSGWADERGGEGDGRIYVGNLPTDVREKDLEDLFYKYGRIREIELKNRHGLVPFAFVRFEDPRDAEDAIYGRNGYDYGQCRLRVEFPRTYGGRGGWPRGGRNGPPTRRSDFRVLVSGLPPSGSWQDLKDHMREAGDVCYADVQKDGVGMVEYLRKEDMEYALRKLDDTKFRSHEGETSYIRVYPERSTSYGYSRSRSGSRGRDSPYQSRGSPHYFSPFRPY
UniProt Q04446: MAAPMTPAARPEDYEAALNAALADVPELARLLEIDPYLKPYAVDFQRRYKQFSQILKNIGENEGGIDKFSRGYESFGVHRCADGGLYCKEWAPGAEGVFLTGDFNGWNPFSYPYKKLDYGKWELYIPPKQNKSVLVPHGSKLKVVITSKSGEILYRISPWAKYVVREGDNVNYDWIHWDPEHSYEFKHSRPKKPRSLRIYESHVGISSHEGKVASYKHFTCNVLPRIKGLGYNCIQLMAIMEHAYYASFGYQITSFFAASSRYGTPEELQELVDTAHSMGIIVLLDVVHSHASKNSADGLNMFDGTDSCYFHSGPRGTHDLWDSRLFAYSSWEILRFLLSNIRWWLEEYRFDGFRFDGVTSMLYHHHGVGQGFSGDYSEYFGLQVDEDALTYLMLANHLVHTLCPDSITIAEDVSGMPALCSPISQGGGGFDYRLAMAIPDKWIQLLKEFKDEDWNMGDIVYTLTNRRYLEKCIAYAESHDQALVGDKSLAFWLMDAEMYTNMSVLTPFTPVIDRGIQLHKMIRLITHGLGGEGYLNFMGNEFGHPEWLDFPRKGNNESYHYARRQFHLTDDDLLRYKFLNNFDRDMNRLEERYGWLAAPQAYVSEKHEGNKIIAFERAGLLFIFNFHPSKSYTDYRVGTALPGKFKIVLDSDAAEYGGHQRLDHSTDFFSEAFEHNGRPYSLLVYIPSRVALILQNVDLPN
UniProt Q09161: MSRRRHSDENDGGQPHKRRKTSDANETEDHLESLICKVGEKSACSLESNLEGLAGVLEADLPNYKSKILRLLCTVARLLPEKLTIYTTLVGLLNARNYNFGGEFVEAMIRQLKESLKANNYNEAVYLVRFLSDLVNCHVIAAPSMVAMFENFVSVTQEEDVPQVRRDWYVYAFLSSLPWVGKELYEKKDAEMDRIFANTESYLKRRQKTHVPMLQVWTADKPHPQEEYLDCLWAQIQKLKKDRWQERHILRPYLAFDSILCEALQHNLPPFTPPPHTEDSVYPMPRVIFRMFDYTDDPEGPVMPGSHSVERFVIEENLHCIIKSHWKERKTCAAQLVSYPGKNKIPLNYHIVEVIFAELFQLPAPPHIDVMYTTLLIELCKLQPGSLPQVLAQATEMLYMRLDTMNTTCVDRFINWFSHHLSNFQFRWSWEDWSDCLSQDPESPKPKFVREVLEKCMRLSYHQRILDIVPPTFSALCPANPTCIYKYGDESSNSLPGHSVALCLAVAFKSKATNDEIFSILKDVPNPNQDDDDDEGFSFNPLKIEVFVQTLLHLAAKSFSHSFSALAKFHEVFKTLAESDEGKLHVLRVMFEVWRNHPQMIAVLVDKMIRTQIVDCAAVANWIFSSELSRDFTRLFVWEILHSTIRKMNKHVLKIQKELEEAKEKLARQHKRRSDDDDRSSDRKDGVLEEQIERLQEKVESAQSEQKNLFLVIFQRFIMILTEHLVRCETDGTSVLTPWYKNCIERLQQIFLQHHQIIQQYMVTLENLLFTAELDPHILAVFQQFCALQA
UniProt Q13561, whole entry: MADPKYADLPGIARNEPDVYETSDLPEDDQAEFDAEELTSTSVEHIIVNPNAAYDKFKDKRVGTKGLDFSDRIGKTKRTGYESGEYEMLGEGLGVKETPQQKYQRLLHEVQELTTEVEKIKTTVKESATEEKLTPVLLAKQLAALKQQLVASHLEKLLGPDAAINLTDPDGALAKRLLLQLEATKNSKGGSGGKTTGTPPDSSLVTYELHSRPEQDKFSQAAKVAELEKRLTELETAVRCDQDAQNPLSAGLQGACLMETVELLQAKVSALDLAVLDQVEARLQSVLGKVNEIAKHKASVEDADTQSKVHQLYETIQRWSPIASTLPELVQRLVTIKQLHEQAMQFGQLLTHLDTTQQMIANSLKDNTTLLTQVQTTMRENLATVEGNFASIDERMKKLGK
UniProt Q02790: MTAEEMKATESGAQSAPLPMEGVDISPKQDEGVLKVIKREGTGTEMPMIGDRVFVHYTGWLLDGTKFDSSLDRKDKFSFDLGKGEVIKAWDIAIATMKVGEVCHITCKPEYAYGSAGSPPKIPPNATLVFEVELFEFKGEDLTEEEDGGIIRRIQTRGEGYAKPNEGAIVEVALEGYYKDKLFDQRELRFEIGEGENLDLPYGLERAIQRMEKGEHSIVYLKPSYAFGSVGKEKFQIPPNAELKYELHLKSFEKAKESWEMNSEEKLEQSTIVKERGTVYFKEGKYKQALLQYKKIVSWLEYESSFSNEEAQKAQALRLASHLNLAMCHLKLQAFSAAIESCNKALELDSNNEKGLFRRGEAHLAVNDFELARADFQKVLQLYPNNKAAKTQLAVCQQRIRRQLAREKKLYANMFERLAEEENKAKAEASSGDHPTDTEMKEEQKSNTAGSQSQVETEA
UniProt Q13423: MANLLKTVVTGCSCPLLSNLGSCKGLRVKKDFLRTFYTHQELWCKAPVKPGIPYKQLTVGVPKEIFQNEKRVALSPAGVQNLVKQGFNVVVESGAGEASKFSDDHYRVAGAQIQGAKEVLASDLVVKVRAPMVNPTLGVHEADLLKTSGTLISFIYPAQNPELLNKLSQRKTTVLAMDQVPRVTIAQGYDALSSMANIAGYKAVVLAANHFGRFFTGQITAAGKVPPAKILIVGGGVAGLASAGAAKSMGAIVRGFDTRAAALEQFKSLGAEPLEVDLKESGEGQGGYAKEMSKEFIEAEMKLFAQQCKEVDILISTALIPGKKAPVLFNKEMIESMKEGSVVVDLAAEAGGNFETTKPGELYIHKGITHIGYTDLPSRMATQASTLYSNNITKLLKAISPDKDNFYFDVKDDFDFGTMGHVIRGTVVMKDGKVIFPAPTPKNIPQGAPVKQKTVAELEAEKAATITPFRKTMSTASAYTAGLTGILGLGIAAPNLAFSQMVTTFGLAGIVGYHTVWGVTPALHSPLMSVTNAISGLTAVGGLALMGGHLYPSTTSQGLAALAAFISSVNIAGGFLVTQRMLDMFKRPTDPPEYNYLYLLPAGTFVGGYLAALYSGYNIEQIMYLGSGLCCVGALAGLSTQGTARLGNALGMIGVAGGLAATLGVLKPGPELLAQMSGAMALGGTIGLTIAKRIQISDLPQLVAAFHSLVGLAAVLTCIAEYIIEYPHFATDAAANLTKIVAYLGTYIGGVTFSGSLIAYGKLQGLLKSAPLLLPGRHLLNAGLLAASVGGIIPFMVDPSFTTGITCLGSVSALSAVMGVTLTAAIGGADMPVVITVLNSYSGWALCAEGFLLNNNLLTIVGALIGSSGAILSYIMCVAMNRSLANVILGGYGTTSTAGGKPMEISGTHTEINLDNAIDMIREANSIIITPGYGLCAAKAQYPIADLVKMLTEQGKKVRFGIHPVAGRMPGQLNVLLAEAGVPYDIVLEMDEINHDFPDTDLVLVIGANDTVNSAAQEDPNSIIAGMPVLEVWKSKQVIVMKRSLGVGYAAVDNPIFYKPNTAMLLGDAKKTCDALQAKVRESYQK
UniProt Q14153: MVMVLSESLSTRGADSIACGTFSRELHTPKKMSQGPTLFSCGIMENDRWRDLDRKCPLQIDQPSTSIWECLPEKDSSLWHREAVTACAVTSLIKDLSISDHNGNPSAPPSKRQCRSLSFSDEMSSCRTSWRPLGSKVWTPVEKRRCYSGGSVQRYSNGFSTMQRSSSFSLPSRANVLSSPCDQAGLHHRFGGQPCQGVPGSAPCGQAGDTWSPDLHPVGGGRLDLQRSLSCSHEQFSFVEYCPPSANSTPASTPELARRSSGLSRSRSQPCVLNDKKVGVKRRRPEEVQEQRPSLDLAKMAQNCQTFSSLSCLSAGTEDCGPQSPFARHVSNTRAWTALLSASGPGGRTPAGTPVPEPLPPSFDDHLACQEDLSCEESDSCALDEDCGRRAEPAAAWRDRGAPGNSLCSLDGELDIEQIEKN
UniProt Q13243: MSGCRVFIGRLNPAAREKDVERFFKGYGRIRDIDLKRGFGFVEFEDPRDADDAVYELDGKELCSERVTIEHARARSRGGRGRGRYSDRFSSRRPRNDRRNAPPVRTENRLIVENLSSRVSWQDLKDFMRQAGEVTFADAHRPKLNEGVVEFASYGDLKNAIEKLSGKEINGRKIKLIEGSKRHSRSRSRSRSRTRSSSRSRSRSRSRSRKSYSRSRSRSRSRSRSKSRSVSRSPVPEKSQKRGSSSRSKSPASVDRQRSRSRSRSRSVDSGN

Compound: Nc1nc2c(ncn2[C@@H]2O[C@H](COP(=O)(O)OP(=O)(O)OP(=O)(O)O)[C@@H](O)[C@H]2O)c(=O)[nH]1 [guanosine triphosphate]
Experiment: NP40-soluble protein abundance relative to vehicle (solubility fold change) (ratio); higher = more soluble protein in presence of GTP
Method in brief: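 Each value is a fold change relative to the detergent-processed vehicle, calculated per replicate from vsn-normalised intensities. Jurkat crude lysate received eight concentrations (0.1 to 10 mM) for 10 min at room temperature and 3 min at 37 °C, then was solubilised in 0.8% NP40 with benzonase (60 min, 4 °C). The ultracentrifuged supernatant was TMT-labelled and run by LC-MS/MS in three independent experiments.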

Target | NP40-soluble protein abundance (concentration: 0.1mM) | NP40-soluble protein abundance (concentration: 0.5mM) | NP40-soluble protein abundance (concentration: 1mM) | NP40-soluble protein abundance (concentration: 2mM) | NP40-soluble protein abundance (concentration: 4mM) | NP40-soluble protein abundance (concentration: 6mM) | NP40-soluble protein abundance (concentration: 8mM) | NP40-soluble protein abundance (concentration: 10mM)
FAM50A (UniProt Q14320) | 0.894 ± 0.048 | 0.919 ± 0.031 | 0.885 ± 0.059 | 0.853 ± 0.068 | 0.846 ± 0.095 | 0.877 ± 0.095 | 0.868 ± 0.082 | 0.867 ± 0.081
UniProt Q14156 and related entries | 1.13 ± 0.049 | 1.105 ± 0.011 | 1.09 ± 0.11 | 1.1 ± 0.021 | 1.21 ± 0.11 | 1.1 ± 0.16 | 1.0338 ± 0.00078 | 1.01 ± 0.013
NFX1 (UniProt Q12986) | 1.24 ± 0.021 | 1.125 ± 0.0077 | 1.21 ± 0.021 | 1.274 ± 0.0086 | 1.31 ± 0.041 | 1.4 ± 0.014 | 1.46 ± 0.093 | 1.518 ± 0.0029
UniProt Q14008 and related entries | 0.966 ± 0.041 | 0.983 ± 0.039 | 0.976 ± 0.042 | 0.958 ± 0.04 | 0.956 ± 0.039 | 0.968 ± 0.029 | 0.986 ± 0.056 | 0.979 ± 0.056
MRPL49 (UniProt Q13405) | 1.02 ± 0.1 | 1.06 ± 0.14 | 1.23 ± 0.3 | 1.35 ± 0.31 | 1.38 ± 0.42 | 1.36 ± 0.37 | 1.35 ± 0.29 | 1.37 ± 0.42
KRR1 (UniProt Q13601) | 1.06 ± 0.035 | 1.07 ± 0.02 | 1.08 ± 0.045 | 1.13 ± 0.044 | 1.16 ± 0.056 | 1.14 ± 0.086 | 1.17 ± 0.05 | 1.18 ± 0.065
MTM1 (UniProt Q13496) | 1.01 ± 0.078 | 1.08 ± 0.088 | 0.961 ± 0.043 | 0.99 ± 0.076 | 0.933 ± 0.093 | 0.962 ± 0.093 | 0.93 ± 0.057 | 0.891 ± 0.087
UniProt Q14161 and related entries | 0.956 ± 0.075 | 0.962 ± 0.041 | 0.98 ± 0.056 | 0.972 ± 0.066 | 0.976 ± 0.068 | 0.993 ± 0.05 | 1 ± 0.083 | 0.996 ± 0.096
BOP1 (UniProt Q14137) | 1.03 ± 0.043 | 1.04 ± 0.026 | 1.03 ± 0.026 | 1.03 ± 0.022 | 1.01 ± 0.048 | 1.02 ± 0.013 | 0.994 ± 0.029 | 0.967 ± 0.035
UniProt Q02447-3 | 0.995 ± 0.021 | 1 ± 0.078 | 1.01 ± 0.033 | 0.984 ± 0.067 | 0.983 ± 0.049 | 1.01 ± 0.084 | 1.08 ± 0.055 | 1.05 ± 0.016
PMPCA (UniProt Q10713) | 0.991 ± 0.017 | 1.02 ± 0.019 | 0.934 ± 0.018 | 0.933 ± 0.027 | 0.915 ± 0.036 | 0.904 ± 0.025 | 0.866 ± 0.014 | 0.867 ± 0.067
PDIA5 (UniProt Q14554) | 1.03 ± 0.041 | 1 ± 0.047 | 0.964 ± 0.064 | 0.968 ± 0.07 | 1 ± 0.072 | 0.993 ± 0.064 | 0.995 ± 0.037 | 0.976 ± 0.07
DPYD (UniProt Q12882) | 1.05 ± 0.026 | 1.04 ± 0.042 | 1.02 ± 0.0055 | 1.03 ± 0.02 | 0.997 ± 0.015 | 0.996 ± 0.035 | 1 ± 0.03 | 0.97 ± 0.034
UniProt Q14677 and related entries | 0.949 ± 0.049 | 0.967 ± 0.065 | 0.949 ± 0.087 | 0.942 ± 0.099 | 0.932 ± 0.098 | 0.959 ± 0.079 | 0.98 ± 0.061 | 0.98 ± 0.08
UniProt Q13242 | 0.925 ± 0.015 | 0.928 ± 0.036 | 1.14 ± 0.064 | 1.22 ± 0.023 | 1.3 ± 0.05 | 1.44 ± 0.058 | 1.5 ± 0.062 | 1.71 ± 0.18
GBE1 (UniProt Q04446) | 1.01 ± 0.021 | 1 ± 0.028 | 0.9411 ± 0.0057 | 0.907 ± 0.032 | 0.896 ± 0.048 | 0.889 ± 0.027 | 0.869 ± 0.034 | 0.84 ± 0.067
PSMD2 (UniProt Q13200) | 1.03 ± 0.077 | 1.1 ± 0.11 | 1.01 ± 0.13 | 1.08 ± 0.19 | 1.06 ± 0.17 | 1.08 ± 0.2 | 1.04 ± 0.16 | 1 ± 0.15
PWP1 (UniProt Q13610) | 1.04 ± 0.038 | 1.04 ± 0.054 | 0.959 ± 0.069 | 0.966 ± 0.06 | 0.979 ± 0.097 | 0.99 ± 0.1 | 0.986 ± 0.12 | 0.986 ± 0.1
NCBP1 (UniProt Q09161) | 1 ± 0.036 | 1.04 ± 0.064 | 1.01 ± 0.077 | 1.06 ± 0.12 | 1.08 ± 0.14 | 1.09 ± 0.12 | 1.07 ± 0.1 | 1.09 ± 0.062
UniProt Q13561 and related entries | 0.886 ± 0.025 | 0.86 ± 0.067 | 1.08 ± 0.071 | 1.07 ± 0.034 | 1.12 ± 0.055 | 1.09 ± 0.079 | 1.07 ± 0.12 | 1.15 ± 0.16
UniProt Q00839 and related entries | 1.02 ± 0.049 | 1.12 ± 0.11 | 1.16 ± 0.19 | 1.21 ± 0.23 | 1.27 ± 0.3 | 1.26 ± 0.29 | 1.29 ± 0.33 | 1.2 ± 0.29
UniProt Q02086 and related entries | 1.11 ± 0.23 | 1.12 ± 0.21 | 1.17 ± 0.085 | 1.09 ± 0.21 | 1.07 ± 0.3 | 1.14 ± 0.21 | 1.2 ± 0.088 | 1.3 ± 0.25
SLFN5 (UniProt Q08AF3) | 1.12 ± 0.081 | 1.12 ± 0.12 | 1.05 ± 0.072 | 1.09 ± 0.1 | 1.08 ± 0.11 | 1.04 ± 0.11 | 1.03 ± 0.029 | 1.01 ± 0.033
FKBP4 (UniProt Q02790) | 0.978 ± 0.025 | 1.01 ± 0.029 | 0.931 ± 0.023 | 0.92 ± 0.0088 | 0.885 ± 0.021 | 0.901 ± 0.016 | 0.877 ± 0.029 | 0.863 ± 0.044
UniProt Q13247 and related entries | 0.996 ± 0.035 | 1.25 ± 0.051 | 1.34 ± 0.031 | 1.27 ± 0.047 | 1.13 ± 0.058 | 1.28 ± 0.068 | 1.39 ± 0.065 | 1.27 ± 0.1
ECH1 (UniProt Q13011) | 0.946 ± 0.039 | 0.997 ± 0.06 | 0.888 ± 0.053 | 0.927 ± 0.049 | 0.914 ± 0.058 | 0.927 ± 0.044 | 0.871 ± 0.028 | 0.904 ± 0.01
UniProt Q01543 and related entries | 0.967 ± 0.018 | 0.965 ± 0.062 | 1.03 ± 0.11 | 1.02 ± 0.15 | 0.986 ± 0.092 | 0.981 ± 0.11 | 0.998 ± 0.043 | 0.984 ± 0.066
NNT (UniProt Q13423) | 0.967 ± 0.011 | 0.9948 ± 0.0079 | 0.958 ± 0.01 | 0.95 ± 0.012 | 0.92 ± 0.038 | 0.947 ± 0.02 | 0.9257 ± 0.0027 | 0.92 ± 0.028
UniProt Q14153 and related entries | 0.98 ± 0.13 | 1 ± 0.19 | 1.03 ± 0.016 | 0.968 ± 0.074 | 0.923 ± 0.036 | 0.927 ± 0.077 | 0.905 ± 0.044 | 0.9312 ± 0.0031
UniProt Q13243 | 0.945 ± 0.1 | 1.12 ± 0.055 | 1.25 ± 0.13 | 1.23 ± 0.17 | 1.27 ± 0.21 | 1.4 ± 0.26 | 1.58 ± 0.34 | 1.6 ± 0.37

Already shown: entries from further up.
Target | NP40-soluble protein abundance (concentration: 0.1mM) | NP40-soluble protein abundance (concentration: 0.5mM) | NP40-soluble protein abundance (concentration: 1mM) | NP40-soluble protein abundance (concentration: 2mM) | NP40-soluble protein abundance (concentration: 4mM) | NP40-soluble protein abundance (concentration: 6mM) | NP40-soluble protein abundance (concentration: 8mM) | NP40-soluble protein abundance (concentration: 10mM)
UniProt Q14153 and related entries | 0.98 ± 0.13 | 1 ± 0.19 | 1.03 ± 0.016 | 0.968 ± 0.074 | 0.923 ± 0.036 | 0.927 ± 0.077 | 0.905 ± 0.044 | 0.9312 ± 0.0031
UniProt Q13243 | 0.945 ± 0.1 | 1.12 ± 0.055 | 1.25 ± 0.13 | 1.23 ± 0.17 | 1.27 ± 0.21 | 1.4 ± 0.26 | 1.58 ± 0.34 | 1.6 ± 0.37
